# Assay results from PubChem BioAssay AID624297 (National Center for Advancing Translational Sciences (NCATS), 2012).
# Among all 340,000 compounds or so, about 6,200 (1.8%) were called active. Inconclusive results, whose numbers are uncertain, are shown with a selection of clear calls. The call rests on the fitted dose curve; in most records, active means well fitted activation curve with a large enough effect; inconclusive means small, poorly fitted or top-dose-only effect; inactive means no such curve, though single readings can be large or run the other way. Potencies of inconclusive entries are doubtful fits and often do not repeat.
# Experiment: A quantitative high throughput screen for small molecules that induce DNA re-replication in SW480 colon adenocarcinoma cells. Further: nearly all actives have a fitted effect of over 55% in size. On re-replication activation: % of control where 0% means no effect.
# Details: Hoechst DNA content imaging, 48 h; re-replication activation: at 46.1 µM (top of the series) unless noted
# How it was run: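 Compounds, transferred as 23 nL by pin tool, were incubated with cells for 48 hr; DNA content per nucleus was then quantified by Hoechst staining and fluorescence plate imaging.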
# Potency means the concentration at half of the fitted maximal effect.
SMILES,Potency,re-replication activation
COc1ccc(-n2cc(-c3ccc(OC)c(OC)c3)[nH]c2=S)cc1,"inconclusive: 29.1 µM [activator, single point]",–
COc1ccc(C)cc1Nc1nc(C)nc2sc(C)cc12,"inconclusive: 29.1 µM [activator, single point]",–
CC(C)CN(C(=O)COC(=O)c1ccccc1NCc1ccco1)c1c(N)n(Cc2ccccc2)c(=O)[nH]c1=O,"inconclusive: 29.1 µM [activator, single point]",–
O=c1cc(-c2ccsc2)oc2cc(-c3ccc4c(c3)OCO4)ccc12,–,inactive: -0.194%
O=C(c1ccc2c(c1)OCO2)N(CC1CCCO1)C1(C(=O)NC2CCCCC2)CCCCC1 (centres undefined),"inconclusive: 5.8 µM [activator, partial curve, poor fit]",–
CN(Cc1ccccc1)C(=O)C1CCN(S(=O)(=O)c2cccc3nsnc23)CC1,active: 20.6 µM,–
COc1ccc(OC)c(C(=O)CN2CCN(S(=O)(=O)c3ccc(Br)cc3)CC2)c1,"inconclusive: 29.1 µM [activator, single point]",–
CNC(=O)Nc1ccc(Cn2cc(C(F)(F)F)ccc2=O)cc1,"inconclusive: 29.1 µM [activator, partial curve, poor fit]",–
O=C(Nc1c(Br)cc2c(c1Br)Cc1cc([N+](=O)[O-])ccc1-2)C(Cl)Cl,"inconclusive: 6.51 µM [activator, partial curve, poor fit]",–
Nc1nc2ncc(-c3ccsc3)c(N)n2n1,active: 3.66 µM,–
CCC(=O)N1C(Cc2ccccc2)COC1(C)C (centres undefined),"inconclusive: 23.1 µM [activator, partial curve, poor fit]",–
Cc1cccc(NC(=O)COC(=O)c2n[nH]c3ccccc23)c1C,"inconclusive: 23.1 µM [activator, single point]",–
Cc1cc(CC(C)CC(C)(C)C)n(O)c(=O)c1 (centres undefined),"inconclusive: 7.5 µM [activator, partial curve, poor fit]",–
CCOC(=O)COc1ccc(Br)cc1/C=C\c1[nH]c(=O)[nH]c(=O)c1[N+](=O)[O-],"inconclusive: 16.4 µM [activator, single point]",–
COc1ccccc1C(=O)NCCC(=O)NCC1CCCO1 (centres undefined),"inconclusive: 5.8 µM [activator, partial curve, poor fit]",–
Cc1nnc(NC(=O)C2CCCO2)s1 (centres undefined),–,inactive: -0.887%
COC(=O)Cc1c(C)c2ccc(OCC(=O)N3CCCC(C)C3)c(C)c2oc1=O (centres undefined),"inconclusive: 6.51 µM [activator, single point]",–
O=C(O)c1ccc(/C=N/Nc2ccc(C(F)(F)F)cn2)cc1,active: 5.8 µM,–
CN(C)c1ccc(/C=N/NC(=O)c2ccccc2Cl)cc1,active: 2.59 µM,–
CCOc1cc(CNC2CCCC2)cc(Cl)c1OCc1ccccc1,"inconclusive: 3.66 µM [activator, partial curve, poor fit]",–
Clc1cccc(-c2ccc(C=Nc3ccc(N4CCOCC4)cc3)o2)c1Cl,"inconclusive: 1.46 µM [activator, partial curve]",–
CCN(CC)c1ccc(/C=N/N=C(N)N)c(O)c1,active: 16.4 µM,–
COc1ccc(N2CCCC2)c(NC(=O)c2ccc([N+](=O)[O-])o2)c1,"inconclusive: 29.1 µM [activator, single point]",–

# An excerpt of these results, with tabs:
SMILES	Potency	re-replication activation
CNC(=O)Nc1ccc(Cn2cc(C(F)(F)F)ccc2=O)cc1	inconclusive: 29.1 µM [activator, partial curve, poor fit]	–
O=C(Nc1c(Br)cc2c(c1Br)Cc1cc([N+](=O)[O-])ccc1-2)C(Cl)Cl	inconclusive: 6.51 µM [activator, partial curve, poor fit]	–
Nc1nc2ncc(-c3ccsc3)c(N)n2n1	active: 3.66 µM	–
CCC(=O)N1C(Cc2ccccc2)COC1(C)C (centres undefined)	inconclusive: 23.1 µM [activator, partial curve, poor fit]	–

# Next part:

SMILES,Potency,re-replication activation
COCC(=O)Nc1ccc(OC)c(Cl)c1,–,inactive: 7.45%
COc1ccc(NS(=O)(=O)c2ccc(Cl)c(NC(=O)c3cccnc3Cl)c2)cc1,–,inactive: 14.3%
CCOC(=O)c1ccc(-c2c(-c3ccccc3OC)sc3ccc(OC)cc23)cc1F,"inconclusive: 6.51 µM [activator, single point]",–
O=C(COC(=O)C1CC(O)CN1S(=O)(=O)c1ccc(Cl)cc1)c1cccc(Cl)c1 (centres undefined),"inconclusive: 7.31 µM [activator, partial curve, poor fit]",–
Cc1cc(NC(=O)COc2ccc3ccccc3c2Br)no1,–,inactive: -10.4%
Cn1nc(C(F)(F)F)c(/C=N/OC(=O)c2ccccc2Cl)c1SCc1ccc(Cl)cc1,–,inactive: -1.29%
OCc1ccc(O)c2ncccc12,active: 16.4 µM,–
COc1cc(C2C3=C(COC3=O)OC(C)(C)Oc3cc4c(cc32)OCO4)cc(OC)c1OC (centres undefined),active: 1.16 µM,–
C/C(=N\NC(=O)c1ccccc1C)c1ccc(NC(=O)c2cccs2)cc1,"inconclusive: 0.326 µM [activator, full curve, poor fit]",–
CCn1cnc2c1c(=O)n(CC(=O)OC(C)C(N)=O)c(=O)n2Cc1ccccc1 (centres undefined),"inconclusive: 1.16 µM [activator, full curve, poor fit]",–
Cc1cc(C)n2nc(SCC(=O)NC(=O)NCc3ccco3)nc2n1,"inconclusive: 2.91 µM [activator, single point]",–
Cc1cccc(/C=C/c2onc(C)c2[N+](=O)[O-])n1,"inconclusive: 2.91 µM [activator, single point]",–
COC(=O)N1C(=O)[C@](CC(C)C)(c2ccccc2)N1C(=O)OC,"inconclusive: 29.1 µM [activator, single point]",–
Cc1cccc(C(=O)NCc2nnc(SCC(=O)NC(C)c3ccccc3)n2C)c1 (centres undefined),active: 18.4 µM,–
COc1ccc(C)cc1NC(=O)CSc1ccc(-c2ccccn2)nn1,"inconclusive: 29.1 µM [activator, single point]",–
COc1ccc(CNC(=O)C2CCCN2)cc1OC (centres undefined),"inconclusive: 23.1 µM [activator, single point]",–
Cc1ccc(C(=O)Oc2ccc(N3C(=O)CCC3=O)c(C)c2)cc1,"inconclusive: 4.11 µM [activator, partial curve, poor fit]",–
O=C(NC(=S)NCCOCc1ccc(Cl)cc1)c1cccnc1,–,inactive: 1.51%
Cc1ccc(/C=C2/SC(=S)N(CCCC(=O)Nc3ccc(O)cc3)C2=O)cc1,"inconclusive: 16.4 µM [activator, single point]",–
O=c1cc(O)c2sc(Nc3cccc(C(F)(F)F)c3)nc2[nH]1,"inconclusive: 8.2 µM [activator, partial curve, poor fit]",–
CCCC(C(=O)OCCN(CC)CC)(c1ccccc1)c1ccccc1,"inconclusive: 33.5 µM [activator, partial curve, poor fit]",–
CCOc1ccc(NC(=S)Nc2ccc(OC(F)(F)F)cc2)cc1,–,inactive: -26.3%
O=CN1CCN(C(=O)c2cc3cc(Cl)ccc3[nH]2)CC1,active: 5.17 µM,–

SMILES,Potency,re-replication activation
O=C(/C=C/c1cccc(Br)c1)c1ccc2c(c1)OCO2,"inconclusive: 29.1 µM [activator, single point]",–
CCN(CC)S(=O)(=O)c1cccc(NC(=O)COc2ccc(C#N)cc2OC)c1,–,inactive: -9.57%
O=C(Nc1cc(Sc2nc3ccccc3s2)cc([N+](=O)[O-])c1)c1ccccc1F,"inconclusive: 12.6 µM [activator, partial curve, poor fit]",–
CCn1cc(/C=C(\NC(=O)c2ccccc2F)C(=O)N2CCCC2)c2ccccc21,–,inactive: -20.8%
CCCCCc1c(C)nc(N2CCc3ccccc32)[nH]c1=O,"inconclusive: 14.6 µM [activator, partial curve, poor fit]",–
Cc1ccc(NC(=O)CC(=O)Nc2ccc(C)cc2)cc1,–,inactive: -5.7%
CCN(CC)CCCNC(=O)c1cc2c(-c3ccc(Cl)cc3)nn(C)c2s1,"inconclusive: 20.6 µM [activator, single point]",–
Cc1ccc(-n2ccnc(SCC(=O)NC3CCCCC3)c2=O)cc1F,"inconclusive: 6.51 µM [activator, single point]",–
CCC(C)Nc1nc2c(c(=O)n(C)c(=O)n2C)n1C (centres undefined),"inconclusive: 29.1 µM [activator, single point]",–
COc1ccccc1C1CC(c2ccccc2)Nc2ncnn21 (centres undefined),"inconclusive: 29.1 µM [activator, single point]",–
Cn1c(Sc2ccc(C(=O)O)cc2[N+](=O)[O-])nnc1-c1ccccc1,–,inactive: -3.41%
COc1ccc(-n2c(SCC(=O)Nc3nccs3)nnc2-c2ccccc2)cc1,"inconclusive: 20.6 µM [activator, partial curve, poor fit]",–
CN(C)CCNC(=O)/C(=C/c1ccc(-c2cccc(Cl)c2)o1)NC(=O)c1ccccc1,"inconclusive: 4.61 µM [activator, single point]",–
COc1ccc(NC(=O)COC(=O)CCOc2ccccc2C)cc1Cl,"inconclusive: 29.1 µM [activator, single point]",–
CC12CCC(C(=O)N(CSC(=S)N/N=C\c3ccccc3Cl)C1=O)C2(C)C (centres undefined),"inconclusive: 29.1 µM [activator, single point]",–
Cc1sc2ncnc(N3CCC(C(=O)Nc4ccc(OC(F)F)c(Cl)c4)CC3)c2c1C,–,inactive: -0.203%
Cc1cc(N2C(=O)C(O)=C(C(=O)c3ccc(C)o3)C2c2cccs2)no1 (centres undefined),"inconclusive: 14.6 µM [activator, single point]",–
CCOc1ccc2c(c1)c(=O)c(S(=O)(=O)c1ccc(C)cc1)cn2CC,"inconclusive: 6.51 µM [activator, single point]",–
NS(=O)(=O)c1ccc(N/N=C/c2ccncc2)cc1,–,inactive: 5.82%
NC(N)=N/N=C(\N=Nc1ccccc1)c1ccc(Cl)cc1,"inconclusive: 23.1 µM [activator, single point]",–
O=C1NC(SCCCF)=N/C1=C/c1ccc(-n2cncn2)cc1,–,inactive: 1.02%
O=C(Nc1cc([N+](=O)[O-])ccc1F)c1ccc2ccccc2c1,"inconclusive: 16.4 µM [activator, single point]",–
NC(C(=O)O)C1ON=C(Cl)C1O (centres undefined),"inconclusive: 23.1 µM [activator, partial curve, poor fit]",–
